In patent US20210061896A1:
These are yes or no findings as the source states them, for the method shown. Some results given as binding are weak or reduced against the parent protein; the word gives no strength. For part of these data: Where a sequence is shown, tags or fusion partners need not be part of it. One block for each binder: values may come before it.

Experiments:
huBDNFpro (human) = target: T1, huBDNFpro (human) (UniProt P23560); assay: Western blot
T1 sequence: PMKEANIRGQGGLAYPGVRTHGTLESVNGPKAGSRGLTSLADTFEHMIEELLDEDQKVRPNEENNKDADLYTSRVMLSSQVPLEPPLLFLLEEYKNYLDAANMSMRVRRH

[1] = target: T2, GST-huBDNFpro-E2 peptide fragment (human); assay: ELISA on GST fusion protein
T2 sequence: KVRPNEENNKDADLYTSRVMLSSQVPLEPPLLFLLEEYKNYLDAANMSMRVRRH

[2] = target: T3, full length GST-huBDNFpro (human) (UniProt P23560); assay: ELISA on GST fusion protein
T3 sequence: T1 sequence

[3] = target: T4, GST-huBDNFpro-E5 peptide fragment (human); assay: ELISA on GST fusion protein
T4 sequence: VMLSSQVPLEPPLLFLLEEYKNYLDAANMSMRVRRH

[4] = target: T5, biotinylated DH peptide fragment (human); assay: ELISA on biotinylated peptide
T5 sequence (peptide, biotinylated (position not stated)): DAANMSMRVRRH

binding (huBDNFpro (human)): binds | binding [1]: binds | binding [2]: binds | binding [3]: binds
B1: 2H8 monoclonal antibody (antibody, human IgG4, kappa, V domains shown)
VH: EVQLVETGGGLVQPGGSLRLSCAASGFTFSSYGMHWVRQAPGKGLEWVSVISGSGDSTYYAESVKGRFTISRDNARNTVYLQMNSLRAEDTAVYYCASGILTGYVFDYWGKGTMVTVSS
VL: DVVMTQSPLSLPVTLGQPASISCRSSQSLVSNDGNTYLNWFQQRPGQPPRRLIYMVSKWDSGVPDRFSGSGSGTDFTLRISRVEAEDVGVYYCMQSTHWPPTFGGGTKLEIKR

binding [4]: binds | binding (huBDNFpro (human)): binds | binding [1]: binds | binding [2]: binds | binding [3]: binds
B2: 1D3 monoclonal antibody (antibody, human IgG4, kappa, V domains shown)
VH: QVQLVESGGGLIQPGGSMRLSCAASGFSLSGYDMHWVRQIAGKGLEWVAGLGMEGDSYYSASVKGRFTISRQDAKNSLYLEMKDLGGGDTAVYYCLRDVHGFDVWGQGTTVTVSS
VL: DVVMTQSPLSLPVTPGEPASISCRSSQSLLYSNGYTYLDWYLQRPGQSPQLLIYMGSNRASGVPDRFSGSGSGTDFTLKISRVEAEDVGVYYCMQALQTPLTFGGGTKLEIKR
